Test results as given in patent US9808434B2, “Compound for treating cancer and diabetes” (CITY OF HOPE, priority 2011, dated 2017).

Assays:
[1] = tested on: B16-F0 melanoma cells; assay: RNA-sequence differential gene expression, B16-F0; type: cell-based, mouse; conditions: 5 μM
[2] = tested on: hepatic genes; assay: Liver gene expression of HFD obese and db/db mice; type: in vivo, mouse; conditions: RNA sequencing
Description: Total RNA was isolated from livers of lean, vehicle or COH-SR4-treated HFD mice using standard protocols and subjected to quantitative RT-PCR using primers for key genes associated with lipid and fatty acid synthesis (Acaca, Pparg, Acly, Scd1, Srebf1, Hmgcr, Cpt1, Fasn) and gluconeogenesis (G6pc, Pck1). Livers of db/+ and db/db mice treated with vehicle or COH-SR4 were used for RNA-seq analysis. RNA isolation, purification, sequencing, library preparation and read alignments were done at the City of Hope Functional Genomics Core facility. Differential gene expression was identified from standard Partek workflow (Partek Genomics Suite v6.6, Partek, Inc) using ANOVA, with step-up FDR multiple testing correction p-value of <0.05 and 1.5× fold change. […] Databases utilized included GOTERM_BP_FAT (biological process) and Kyoto Encyclopedia of Genes and Genomes (KEGG_PATHWAY).
Total RNA was isolated from liver of control animals and HFD obese or db/db mice treated with vehicle or COH-SR4 (as described in Example 35). Relative mRNA expression (mean±SEM) of lipogenic and gluconeogenic genes were determined using real time RT-PCR and quantified using the comparative Ct method (FIG. 86A, ^#P<0.05, ^##P<0.01 vs. HFD). […] Key hepatic genes associated with lipid/fatty acid synthesis and glucose and amino acid metabolism regulated by COH-SR4 in db/db mice are shown in FIG. 86D.

For `O=C(Nc1cc(Cl)cc(Cl)c1)Nc1cc(Cl)cc(Cl)c1` [COH-SR4, 1,3-bis(3,5-dichlorophenyl) urea], the differentially expressed genes ([1]; 4 h) was 773 genes, the downregulated genes ([1]; 4 h) was 184 genes and the upregulated genes ([1]; 4 h) was 589 genes. For the same compound, the differentially expressed genes ([1]; 24 h) was 3828 genes, the down-regulated genes ([1]; 24 h) was 1865 genes and the upregulated genes ([1]; 24 h) was 1963 genes. The “differentially expressed genes in liver” value [2] was 642 genes, the “downregulated genes in liver” value [2] was 425 genes and the “upregulated genes in liver” value [2] was 217 genes.
